From patent US20150094271A1 come the findings set out here.

Sequences of proteins named here, by UniProt entry; tags and fusion partners are left off. Residues count along the entry.
UniProt Q00987, residues 1-125: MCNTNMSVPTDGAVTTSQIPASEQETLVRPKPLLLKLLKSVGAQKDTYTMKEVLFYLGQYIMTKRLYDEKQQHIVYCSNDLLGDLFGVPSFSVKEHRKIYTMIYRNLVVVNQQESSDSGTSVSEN

Results are given in words; binding and its absence hold for the method and conditions named. Some results given as binding are weak or reduced against the parent protein; the word gives no strength.

The assay addresses HDM2NTD (N-terminal domain of HDM2, amino acids 1 to 125 of NP-002383) (human) (UniProt Q00987). In words: small-angle X-ray scattering of the complex in solution.

Regarding RMKQLEDKVGELLFSNYWLELEVARLKKLV (designed binder) [leucine zipper variant p53LZ2], the binding result is recorded as “binds”.
